These are yes or no findings as the source states them, for the method shown. Binding seen in cells or lysates may run through a third protein. Binding calls can cover weak binding; strength is not graded here.
Molecular target: T1, ADNP (in HEK293T cells, partner of the β-catenin fragments) (UniProt Q9Z103)
T1 sequence: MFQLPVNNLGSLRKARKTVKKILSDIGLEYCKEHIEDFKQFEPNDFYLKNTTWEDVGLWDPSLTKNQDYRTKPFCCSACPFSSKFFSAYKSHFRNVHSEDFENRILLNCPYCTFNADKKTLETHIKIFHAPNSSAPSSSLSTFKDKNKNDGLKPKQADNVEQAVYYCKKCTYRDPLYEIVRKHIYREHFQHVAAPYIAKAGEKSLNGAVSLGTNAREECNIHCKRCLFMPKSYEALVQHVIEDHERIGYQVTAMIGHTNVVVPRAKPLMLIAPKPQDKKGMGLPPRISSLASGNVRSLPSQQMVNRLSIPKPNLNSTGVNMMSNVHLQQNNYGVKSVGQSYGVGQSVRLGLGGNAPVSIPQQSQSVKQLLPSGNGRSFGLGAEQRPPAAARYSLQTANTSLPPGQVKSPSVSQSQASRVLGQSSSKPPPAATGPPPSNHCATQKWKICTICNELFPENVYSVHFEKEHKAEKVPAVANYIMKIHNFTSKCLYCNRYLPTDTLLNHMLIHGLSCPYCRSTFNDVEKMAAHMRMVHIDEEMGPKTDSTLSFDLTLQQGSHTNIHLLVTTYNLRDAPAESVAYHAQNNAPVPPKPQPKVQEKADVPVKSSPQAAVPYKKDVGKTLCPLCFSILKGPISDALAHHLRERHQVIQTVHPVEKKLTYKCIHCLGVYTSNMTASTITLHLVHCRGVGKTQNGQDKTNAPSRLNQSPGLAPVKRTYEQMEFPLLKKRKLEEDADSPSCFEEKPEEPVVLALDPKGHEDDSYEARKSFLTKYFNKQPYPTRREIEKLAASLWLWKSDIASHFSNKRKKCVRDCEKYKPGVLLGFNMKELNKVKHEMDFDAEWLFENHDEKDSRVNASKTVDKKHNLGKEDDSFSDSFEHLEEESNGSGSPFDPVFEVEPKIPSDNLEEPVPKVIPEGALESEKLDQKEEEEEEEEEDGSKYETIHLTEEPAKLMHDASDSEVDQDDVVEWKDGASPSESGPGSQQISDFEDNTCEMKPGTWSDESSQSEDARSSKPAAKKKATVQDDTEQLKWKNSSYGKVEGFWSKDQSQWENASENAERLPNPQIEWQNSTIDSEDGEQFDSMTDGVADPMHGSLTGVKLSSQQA
Test: co-IP; plasmids co-transfected into HEK293T cells; lysates, Dynabeads Protein G with anti-FLAG, anti-HA or anti-MYC antibody, overnight 4 °C, washes PBS 0.1% Tween

Substance | binding
β-catenin Arm2 fragment (armadillo repeats 5–12) (domain or fragment) | binds
β-catenin Arm1 fragment (armadillo repeats 1–4) (domain or fragment) | binds
